# In PubChem BioAssay AID504834 (National Center for Advancing Translational Sciences (NCATS), 2011):
# Out of some 320,000 compounds screened, about 22,000 (6.9%) were called active. The inconclusive results got no clear call from the source; some entries with a clear call stand among them for comparison. Calls come from the whole dose curve; as a rule, active = well fitted inhibition curve with a large enough effect; inconclusive = small, poorly fitted or top-dose-only effect, or another doubt; inactive = no such curve, though single readings can be large or run the other way. Potencies beside an inconclusive call are fits to weak or partial responses and may not hold up.
# Experiment: Primary qHTS for delayed death inhibitors of the malarial parasite plastid, 96 hour incubation
# Settings: P. falciparum luciferase reporter growth; series mostly up to 28.7 µM
# Outline: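 Plates of compound plus infected erythrocytes (2% hematocrit, 0.05% parasitemia final) incubate 96 hours, 37 C, 5% CO2. Detection reagent added; reduced luminescence from the parasites' luciferase reporter flags inhibition.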
# Potency is the fitted concentration of half-maximal effect.
row,Structure (SMILES),Potency
1,CCn1c(SCC(=O)N2CCOCC2)nnc1C(C)NC(=O)c1ccccc1 (stereo not given),inactive
2,CCC(c1nnnn1C1CCCCC1)N1CCN(C(=O)c2ccco2)CC1 (stereo not given),inactive
3,CCn1c(SCC(=O)N(C)C2CCCCC2)nc2cc(S(N)(=O)=O)ccc21,"inconclusive: 18.5 µM [inhibitor, single point]"
4,CCc1ccc(N2CC(C(=O)Nc3ccc(S(=O)(=O)Nc4nccs4)cc3)CC2=O)cc1 (stereo not given),inactive
5,CSc1ccc(C(=O)N2CCC(CCC(=O)NCc3ccc(F)cc3)CC2)cc1,inactive
6,CCc1cc(=O)oc2cc(C)cc(OCC(=O)NCc3cccnc3)c12,"inconclusive: 18.5 µM [inhibitor, single point]"
7,CCOC(=O)c1c(NC(=O)c2ccccc2C(=O)O)sc2c1CCC2,"inconclusive: 4.15 µM [inhibitor, partial curve]"
8,CCN1C(=O)N(S(=O)(=O)c2ccc(C)cc2)[C@@H](c2ccccc2)C(C(=O)OC)=C1C,"inconclusive: 10.4 µM [inhibitor, single point]"
9,CCNS(=O)(=O)c1ccc(CCC(=O)Nc2ccc3c(c2)OCO3)cc1,inactive
10,COc1ccccc1Nc1cc(C)nc2c(C)ccc([N+](=O)[O-])c12,"inconclusive: 11.7 µM [inhibitor, single point]"
11,O=C1COc2ccc(S(=O)(=O)NCCc3ccc(Cl)cc3)cc2N1,"inconclusive: 2.94 µM [inhibitor, full curve, poor fit]"
12,O=C(O)c1cccc(Sc2cc(Cl)ccc2C(=O)O)c1,"inconclusive: 8.28 µM [inhibitor, single point]"
13,CN(C)CCCN(C(=O)c1sc2ccccc2c1Cl)c1nc2c(F)cccc2s1,inactive
14,C=CCNc1nc(Cl)nc(Nc2ccc(OC)cc2)n1,inactive
15,COc1cc2nc(N3CCN(C(=O)C4COc5ccccc5O4)CC3)nc(N)c2cc1OC (stereo not given),active: 3.7 µM
16,CC(Sc1nnc(-c2cccs2)n1Cc1ccccc1)C(=O)NCc1ccc2c(c1)OCO2 (stereo not given),active: 8.28 µM
17,O=c1c2nnn(Cc3ccccc3)c2ncn1C/C=C/c1ccccc1,"inconclusive: 7.38 µM [inhibitor, partial curve]"
18,COc1cc(C=O)ccc1OCCOCCOc1ccc(Cl)cc1,inactive
19,CC(C)n1c(NCc2cc(Cl)ccc2O)nc2ccccc21,inactive
20,O=C(NC(=S)NNC(=O)c1ccccc1O)c1ccccc1,"inconclusive: 0.262 µM [inhibitor, full curve, poor fit]"
21,CN(CCO)S(=O)(=O)c1ccc2c(c1)C(=NNC(N)=O)c1cc(S(=O)(=O)N(C)CCO)ccc1-2,"inconclusive: 9.28 µM [inhibitor, single point]"
22,O=C1CC2(CCN(C(=O)COc3ccc(F)cc3)CC2)Oc2ccccc21,inactive
23,O=C(Nc1ccc(-n2cnnn2)cc1)c1cccc(S(=O)(=O)N2CCCC2)c1,"inconclusive: 11.7 µM [inhibitor, single point]"
24,CC(=O)c1ccc2c(c1)OCCOCCOCCO2,inactive

row,Structure (SMILES),Potency
1,CCCC(=O)N(c1ccc2oc(=O)sc2c1)S(=O)(=O)c1ccccc1,inactive
2,O=C(/C=C/c1ccccc1)NCCSCc1ccc(Cl)cc1,inactive
3,NS(=O)(=O)c1ccc(NC(=O)CSc2nnc(COc3ccccc3Cl)n2C2CC2)cc1,"inconclusive: 5.86 µM [inhibitor, partial curve]"
4,Cc1cc(/C=C2\SC(=S)N(C)C2=O)c(C)n1-c1cccc(O)c1,inactive
5,CCN(CC(=O)NCc1cccs1)c1ccc(S(=O)(=O)N2CCCC2)cn1,"inconclusive: 0.0828 µM [inhibitor, full curve, poor fit]"
6,C#C[C@]1(O)CC[C@H]2[C@@H]3CCC4=CC(=O)CCC4=C3C=C[C@@]21CC,"inconclusive: 19 µM [inhibitor, partial curve, poor fit]"
7,CN1CCN(CCNC(=O)c2ccc3nc(-c4ccc(F)cc4)c(-c4ccc(F)cc4)nc3c2)CC1,"inconclusive: 10.4 µM [inhibitor, single point]"
8,NC(=O)CC(NC(=O)Cc1cccc2ccccc12)c1ccc(NC2CCCCC2)c([N+](=O)[O-])c1 (stereo not given),"inconclusive: 0.0738 µM [inhibitor, full curve, poor fit]"
9,C#CCn1c(=NC(=O)CN2C(=O)CCC2=O)sc2cccc(C)c21,"inconclusive: 20.8 µM [inhibitor, partial curve, poor fit]"
10,COC(=O)c1cc(S(=O)(=O)N(C)C2CCCCC2)c[nH]1,inactive
11,Cc1nn(CC(=O)NCCc2ccc(Cl)cc2Cl)c(C)c1[N+](=O)[O-],"inconclusive: 2.33 µM [inhibitor, full curve, poor fit]"
12,O=C1CCCc2c1cc(C(=O)O)c(=O)n2-c1ccccc1,"inconclusive: 3.29 µM [inhibitor, partial curve, poor fit]"
13,Cc1cccc(-n2c(SCC(N)=O)nnc2-c2ccco2)c1,inactive
14,Cc1ccc(-c2n[nH]c3c2C(c2ccccc2)N(c2ccc(C(=O)O)cc2)C3=O)cc1 (stereo not given),"inconclusive: 8.28 µM [inhibitor, partial curve]"
15,O=c1cc(N2CCC3(CC2)OCCO3)[nH]c(=O)n1-c1ccc(Br)cc1,"inconclusive: 0.185 µM [inhibitor, partial curve, poor fit]"
16,CCC(C)NS(=O)(=O)c1ccc(OCC(=O)Nc2ccc3c(c2)OCO3)cc1 (stereo not given),"inconclusive: 6.57 µM [inhibitor, partial curve, poor fit]"
17,Cc1cccc(-c2nnc3n2N=C(c2ccccc2)CS3)c1,"inconclusive: 11.7 µM [inhibitor, single point]"
18,CCC(C)NC(=O)c1ccc(Cl)c(S(=O)(=O)Nc2ccccc2N2CCOCC2)c1 (stereo not given),"inconclusive: 0.928 µM [inhibitor, full curve]"
19,COc1ccc(CN2C(=O)CCC(C(=O)O)C2c2ccccc2)cc1 (stereo not given),"inconclusive: 4.15 µM [inhibitor, partial curve, poor fit]"
20,COc1cccc(COC(=O)C2CCN(S(=O)(=O)c3cccs3)CC2)c1OC,inactive
21,CCC(CC)NC(=O)C1CC(=O)N(CCc2ccc(F)cc2)C1 (stereo not given),inactive
22,O=C1COCCOCCOCCOCC(=O)NCCN1,"inconclusive: 2.94 µM [inhibitor, full curve]"
23,COc1ccc([C@H]2CC(=O)C=C(c3ccc4ncccc4c3)C2)cc1,"inconclusive: 16.5 µM [inhibitor, partial curve, poor fit]"
24,O=C(Cn1cnc2sc3c(c2c1=O)CCCC3)NCC(=O)Nc1c(F)cc(F)cc1Br,"inconclusive: 18.5 µM [inhibitor, single point]"

row,Structure (SMILES),Potency
1,CCOC(=O)c1cccc(NC(=O)c2cccnc2)c1,inactive
2,Cc1nc2ccc(NC(=O)c3nn(CC(C)C)c(=O)c4ccccc34)cc2s1,inactive
3,COc1ccc(NC(=O)C2CCCN(S(=O)(=O)c3cccnc3)C2)c(OC)c1 (stereo not given),inactive
4,CCOc1ccccc1CNC(=O)c1cc2oc3ccccc3c2n1CC,active: 1.17 µM
5,CCOc1ccc(C(=O)NCC(=O)Nc2ccc3c(c2)OCO3)cc1OCC,inactive
6,COc1ccc(C2=NN(c3ccccc3)C(=O)/C2=C\c2ccc(O)c(OC)c2)cc1,"inconclusive: 0.465 µM [inhibitor, full curve, poor fit]"
7,Cc1ccsc1/C=N/N=C1\C(=O)Nc2ccccc21,inactive
8,C[C@@H]1O[C@@H](OC2C(O)C(OCCc3ccc(O)c(O)c3)OC(CO)C2OC(=O)/C=C/c2ccc(O)c(O)c2)[C@H](O)[C@H](O)[C@H]1O (stereo not given in full),"inconclusive: 18.5 µM [inhibitor, single point]"
9,COc1cc(/C=C2/C(=O)N(c3ccc([N+](=O)[O-])cc3)N=C2N2CCOCC2)ccc1O,"inconclusive: 4.65 µM [inhibitor, partial curve, poor fit]"
10,CCC12CN(S(=O)(=O)c3ccc(C)cc3)CC(CC)(CN(S(=O)(=O)c3ccc(C)cc3)C1)C2=O,active: 2.33 µM
11,CC(CCc1ccco1)NC(=O)c1cc2c(-c3ccccc3F)nn(C)c2s1 (stereo not given),"inconclusive: 7.38 µM [inhibitor, partial curve]"
12,CN(C(=O)CCc1nc2ccccc2c(=O)[nH]1)C1CCS(=O)(=O)C1 (stereo not given),"inconclusive: 0.415 µM [inhibitor, full curve, poor fit]"
13,CC(C)Oc1ccc(CN2CCC(n3nccc3NC(=O)C3CC3)CC2)cc1,"inconclusive: 18.5 µM [inhibitor, single point]"
14,O=c1oc2ccc(NS(=O)(=O)c3cccc4cccnc34)cc2s1,inactive
15,CC(=O)c1c(C)[nH]c(C(=O)CSc2nc3ccccc3n2C)c1C,"inconclusive: 9.28 µM [inhibitor, single point]"
16,CCCN(c1ccc(C(=O)OC)cc1)S(=O)(=O)c1ccccc1,inactive
17,Cc1cccc(NC2CCCCC2NS(=O)(=O)c2ccccc2)c1 (stereo not given),"inconclusive: 4.15 µM [inhibitor, partial curve]"
18,Cc1ccccc1N=Nc1ccc(O)c2ncccc12,"inconclusive: 13.1 µM [inhibitor, single point]"
19,CN(/N=C/c1ccc(O)cc1O)c1ncc(C(F)(F)F)cc1Cl,inactive
20,Cc1cccc(C(=O)NC(NC(=S)Nc2ccc(S(N)(=O)=O)cc2)C(Cl)(Cl)Cl)c1 (stereo not given),"inconclusive: 9.28 µM [inhibitor, single point]"
21,CCCCn1c(N)c(N(CC(C)C)C(=O)CN(C)S(=O)(=O)c2ccc(F)cc2)c(=O)[nH]c1=O,"inconclusive: 10.4 µM [inhibitor, single point]"
22,CS(=O)(=O)N1CC(C(=O)NN)Oc2ccc(Cl)cc21 (stereo not given),"inconclusive: 0.0522 µM [inhibitor, full curve, poor fit]"

# 4 of these compounds in another layout.
row | Structure (SMILES) | Potency
20 | O=C(NC(=S)NNC(=O)c1ccccc1O)c1ccccc1 | inconclusive: 0.262 µM [inhibitor, full curve, poor fit]
21 | CN(CCO)S(=O)(=O)c1ccc2c(c1)C(=NNC(N)=O)c1cc(S(=O)(=O)N(C)CCO)ccc1-2 | inconclusive: 9.28 µM [inhibitor, single point]
22 | O=C1CC2(CCN(C(=O)COc3ccc(F)cc3)CC2)Oc2ccccc21 | inactive
23 | O=C(Nc1ccc(-n2cnnn2)cc1)c1cccc(S(=O)(=O)N2CCCC2)c1 | inconclusive: 11.7 µM [inhibitor, single point]
